Source: PubChem BioAssay AID1259254 (NCATS, 2017)

Test: 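Finding genes that stop cells copying their DNA twice in one cycle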 (primary screen)
Cell system: human HCT116 colorectal cancer cells
Knock-down reagent: single siRNA against human genes
Duration: 3 days
Measurement: 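Nuclei stained with Hoechst and imaged; cell-cycle phase assigned by DNA content; G2 share scaled per plate, non-targeting siRNA 0%, GMNN siRNA 100%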
Scale: G2 robust z-score and G2 cells, % of GMNN control: higher = more G2 cells, more excess DNA replication; raw share of cells in G2: higher = larger share of cells with G2 DNA content
Active means: 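Active siRNAs have a G2 robust z of 5 or more median absolute deviations over the median, which in these data means about 38% or higher of GMNN control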
This is one part, drawn at random, of about 59,000 reagents. About 1,550 of all reagents (2.6%) count as active. 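G2 share is only a proxy for re-replication; each gene was hit by three separate siRNAs, and active genes were retested.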 Raw values are not corrected between plates. A number with no mark means an inactive call. The numbers tell different reagents against one gene apart. Not stated in the record: the amount of reagent.

no.	gene knocked down	reagent no.	G2 robust z-score	G2 cells, % of GMNN control	raw share of cells in G2 (%)
1	MMP21	1	0.195	4.34	7.43
2	MMP21	2	-0.779	-2.52	3.65
3	MMP21	3	-0.992	-4.02	2.77
4	TTLL11	1	-1.14	-5.04	3.55
5	TTLL11	2	0.244	4.68	6.42
6	TTLL11	3	-0.217	1.44	5.31
7	KRTAP21-2	1	-1.09	-4.68	2.38
8	KRTAP21-2	2	1.33	12.4	8.67
9	KRTAP21-2	3	0.177	4.22	5.89
10	C9orf153	1	-0.33	0.648	3.99
11	C9orf153	2	0.131	3.89	5.1
12	C9orf153	3	-0.305	0.819	4.99
13	ADIPOR1	1	0.296	5.05	6.11
14	ADIPOR1	2	-0.852	-3.03	2.64
15	ADIPOR1	3	-0.512	-0.638	5.66
16	H1-0	1	3.84	30	19.4
17	H1-0	2	0.16	4.09	5.59
18	H1-0	3	0.427	5.97	5.86
19	GRK7	1	0.331	5.29	7.24
20	GRK7	2	-0.359	0.442	5.35
21	GRK7	3	1.47	13.3	7.94
22	KRTAP10-10	1	8.71 (active)	64.2	26.1
23	KRTAP10-10	2	0.735	8.14	6.82
24	KRTAP10-10	3	0.306	5.12	6.25
25	PRR16	1	0.732	8.12	6.51
26	PRR16	2	4.83	37	19.8
27	PRR16	3	-0.654	-1.63	2.65
28	RPL31P50	1	4.28	33.1	15.3
29	RPL31P50	2	1.31	12.2	8.6
30	RPL31P50	3	0.453	6.15	6.67
31	SSTR4	1	1.17	11.2	9.85
32	SSTR4	2	10.6 (active)	77.2	26.9
33	SSTR4	3	0.642	7.49	7.13
34	NOTCH3	1	-0.102	2.25	6.23
35	NOTCH3	2	0.559	6.9	5.47
36	NOTCH3	3	4.91	37.5	20.3
37	ZNF543	1	1.04	10.3	6.64
38	ZNF543	2	-0.648	-1.59	2.61
39	ZNF543	3	-0.675	-1.78	2.9
40	DDX3Y	1	0.129	3.87	6.09
41	DDX3Y	2	-1.32	-6.32	3.04
42	DDX3Y	3	0.307	5.13	6.87
43	NECAP1	1	-0.232	1.33	4.91
44	NECAP1	2	-0.362	0.421	4.12
45	NECAP1	3	-0.45	-0.2	3.23

A run of entries taken from the entries so far, for reference:
no.	gene knocked down	reagent no.	G2 robust z-score	G2 cells, % of GMNN control	raw share of cells in G2 (%)
17	H1-0	2	0.16	4.09	5.59
18	H1-0	3	0.427	5.97	5.86
19	GRK7	1	0.331	5.29	7.24
20	GRK7	2	-0.359	0.442	5.35
21	GRK7	3	1.47	13.3	7.94
22	KRTAP10-10	1	8.71 (active)	64.2	26.1
23	KRTAP10-10	2	0.735	8.14	6.82
24	KRTAP10-10	3	0.306	5.12	6.25
25	PRR16	1	0.732	8.12	6.51
26	PRR16	2	4.83	37	19.8
27	PRR16	3	-0.654	-1.63	2.65
28	RPL31P50	1	4.28	33.1	15.3
29	RPL31P50	2	1.31	12.2	8.6
30	RPL31P50	3	0.453	6.15	6.67
31	SSTR4	1	1.17	11.2	9.85

Additional results:
no.	gene knocked down	reagent no.	G2 robust z-score	G2 cells, % of GMNN control	raw share of cells in G2 (%)
46	SLC6A20	1	-0.796	-2.63	4.76
47	SLC6A20	2	-0.332	0.633	4.04
48	SLC6A20	3	4.55	35	17.2
49	RENBP	1	-1.57	-8.08	2.2
50	RENBP	2	3.35	26.5	14.8
51	RENBP	3	0.453	6.16	6.19
52	RAPGEF3	1	1.48	13.4	11.5
53	RAPGEF3	2	-0.101	2.26	4.57
54	RAPGEF3	3	0.887	9.21	10.1
55	WDR47	1	-1.58	-8.15	1.79
56	WDR47	2	0.305	5.12	6.25
57	WDR47	3	-0.12	2.12	3.97
58	ACSBG2	1	-1.41	-6.97	1.67
59	ACSBG2	2	-0.187	1.65	6.12
60	ACSBG2	3	1.74	15.2	10.4
61	RAB8A	1	1.31	12.2	10.3
62	RAB8A	2	-0.842	-2.96	4.22
63	RAB8A	3	-1.05	-4.43	1.73
64	OPHN1	1	-0.797	-2.64	4.21
65	OPHN1	2	0.103	3.69	6.25
66	OPHN1	3	-0.128	2.07	3.91
67	C2CD5	1	-1.69	-8.94	1.29
68	C2CD5	2	-0.548	-0.885	3.57
69	C2CD5	3	-0.284	0.973	3.76
70	ZNF234	1	1.83	15.8	8.79
71	ZNF234	2	-0.351	0.494	6.21
72	ZNF234	3	0.226	4.56	5.25
73	CRYZL1	1	-0.359	0.441	4.93
74	CRYZL1	2	5.16 (active)	39.3	20.1
75	CRYZL1	3	-1	-4.09	1.8
76	RPL27	1	4.94	37.7	21
77	RPL27	2	3.21	25.6	14.3
78	RPL27	3	3.25	25.9	12.7
79	CHST3	1	-1.29	-6.14	2.88
80	CHST3	2	-0.658	-1.66	4.08
81	CHST3	3	-0.0452	2.65	4.1
82	RGS16	1	0.75	8.24	7.81
83	RGS16	2	-0.501	-0.558	4.47
84	RGS16	3	-1.05	-4.41	2.68
85	ACOT8	1	0.285	4.97	4.9
86	ACOT8	2	-1.05	-4.44	2.95
87	ACOT8	3	2.19	18.4	12.1
